Data reported in patent US8450270B2 (Indiana University Research and Technology Corporation, priority 2008, dated 2013).

Test: general procedure: Boc solid-phase peptide synthesis; Boc Thr(OBzl)Pam resin; methoxybenzhydrylamine resin for C-terminal amides; HBTU (FastBoc single couplings); DEPBT for lactam analogs
Settings: conjugation step, analytical HPLC, Zorbax C8, 214 nm; MALDI mass spectral analysis

With Glucagon Cys17 Mal-PEG-5K as the substance, how does the “final HPLC purity” value read?
Its value is “approx. 90%”.

With Glucagon Cys^24 Mal-PEG-20K as the substance, how does the “final HPLC purity” value read?
The value was “˜90%”.

With Glucagon Cys^29 Mal-PEG-5K as the substance, how does the “final HPLC purity” value read?
Its value is “greater than 95%”.
